Assay results taken from paper PMC9477845.
These are yes or no findings as the source states them, for the method shown. Binding seen in cells or lysates may run through a third protein. Here binding means that the protein was enriched with, or labelled near, the bait; the list need not be complete.

Amino acid sequences for entries named in this document (tags omitted).
UniProt Q16877: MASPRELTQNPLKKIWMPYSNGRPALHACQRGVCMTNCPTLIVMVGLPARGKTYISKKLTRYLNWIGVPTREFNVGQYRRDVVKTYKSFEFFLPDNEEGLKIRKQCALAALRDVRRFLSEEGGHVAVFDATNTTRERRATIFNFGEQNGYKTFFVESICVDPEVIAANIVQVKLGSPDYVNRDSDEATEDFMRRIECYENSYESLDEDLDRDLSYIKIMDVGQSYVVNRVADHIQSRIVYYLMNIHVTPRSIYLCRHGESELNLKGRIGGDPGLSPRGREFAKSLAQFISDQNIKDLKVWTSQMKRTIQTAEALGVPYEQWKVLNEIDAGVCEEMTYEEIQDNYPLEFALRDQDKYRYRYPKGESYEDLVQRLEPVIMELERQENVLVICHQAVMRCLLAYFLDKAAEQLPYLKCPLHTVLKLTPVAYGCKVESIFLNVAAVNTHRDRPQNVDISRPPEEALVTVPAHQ
UniProt Q9P1W9: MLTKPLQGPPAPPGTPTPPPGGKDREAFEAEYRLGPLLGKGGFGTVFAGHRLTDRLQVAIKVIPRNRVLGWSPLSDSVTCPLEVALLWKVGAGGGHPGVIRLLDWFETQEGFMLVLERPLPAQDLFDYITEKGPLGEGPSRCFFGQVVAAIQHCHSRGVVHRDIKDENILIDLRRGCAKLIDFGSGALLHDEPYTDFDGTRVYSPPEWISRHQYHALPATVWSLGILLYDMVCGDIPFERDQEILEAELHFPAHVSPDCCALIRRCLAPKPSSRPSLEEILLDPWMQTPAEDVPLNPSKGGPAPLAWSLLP

Target: PFKFB4 (6-phosphofructose-2-kinase/fructose-2,6-bisphosphatase 4), endogenous (human (endogenous in ESC endometriosis stromal cells)) (UniProt Q16877)
Experiment: affinity purification with mass spectrometry; PFKFB4 immunoprecipitated from EM cells, precipitate analysed by mass spectrometry

## PIM2 (proviral insertion in murine lymphomas 2), endogenous (from UniProt Q9P1W9 1-311)
  binding: binds
